Laboratory results taken from the supplement of paper PMC11006884.
The list shows a part of the results, in another mix than the full data. The data scatter; read single values as rough.

The chains behind the UniProt entries cited, without tags or fusion partners. Where a name states a change or a piece, a line headed by the entry shows the natural chain unless it says otherwise.
UniProt O75367, whole entry, looked up: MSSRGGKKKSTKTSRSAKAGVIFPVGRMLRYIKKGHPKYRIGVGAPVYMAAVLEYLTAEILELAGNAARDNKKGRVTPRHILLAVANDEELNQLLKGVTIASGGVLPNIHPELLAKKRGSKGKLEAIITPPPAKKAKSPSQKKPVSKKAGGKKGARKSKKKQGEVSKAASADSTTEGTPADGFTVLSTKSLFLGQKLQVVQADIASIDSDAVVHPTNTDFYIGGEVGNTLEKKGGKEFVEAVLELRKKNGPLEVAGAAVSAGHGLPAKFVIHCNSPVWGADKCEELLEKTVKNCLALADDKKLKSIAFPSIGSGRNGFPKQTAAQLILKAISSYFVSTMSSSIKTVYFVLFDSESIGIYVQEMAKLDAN
UniProt O75376, whole entry, looked up: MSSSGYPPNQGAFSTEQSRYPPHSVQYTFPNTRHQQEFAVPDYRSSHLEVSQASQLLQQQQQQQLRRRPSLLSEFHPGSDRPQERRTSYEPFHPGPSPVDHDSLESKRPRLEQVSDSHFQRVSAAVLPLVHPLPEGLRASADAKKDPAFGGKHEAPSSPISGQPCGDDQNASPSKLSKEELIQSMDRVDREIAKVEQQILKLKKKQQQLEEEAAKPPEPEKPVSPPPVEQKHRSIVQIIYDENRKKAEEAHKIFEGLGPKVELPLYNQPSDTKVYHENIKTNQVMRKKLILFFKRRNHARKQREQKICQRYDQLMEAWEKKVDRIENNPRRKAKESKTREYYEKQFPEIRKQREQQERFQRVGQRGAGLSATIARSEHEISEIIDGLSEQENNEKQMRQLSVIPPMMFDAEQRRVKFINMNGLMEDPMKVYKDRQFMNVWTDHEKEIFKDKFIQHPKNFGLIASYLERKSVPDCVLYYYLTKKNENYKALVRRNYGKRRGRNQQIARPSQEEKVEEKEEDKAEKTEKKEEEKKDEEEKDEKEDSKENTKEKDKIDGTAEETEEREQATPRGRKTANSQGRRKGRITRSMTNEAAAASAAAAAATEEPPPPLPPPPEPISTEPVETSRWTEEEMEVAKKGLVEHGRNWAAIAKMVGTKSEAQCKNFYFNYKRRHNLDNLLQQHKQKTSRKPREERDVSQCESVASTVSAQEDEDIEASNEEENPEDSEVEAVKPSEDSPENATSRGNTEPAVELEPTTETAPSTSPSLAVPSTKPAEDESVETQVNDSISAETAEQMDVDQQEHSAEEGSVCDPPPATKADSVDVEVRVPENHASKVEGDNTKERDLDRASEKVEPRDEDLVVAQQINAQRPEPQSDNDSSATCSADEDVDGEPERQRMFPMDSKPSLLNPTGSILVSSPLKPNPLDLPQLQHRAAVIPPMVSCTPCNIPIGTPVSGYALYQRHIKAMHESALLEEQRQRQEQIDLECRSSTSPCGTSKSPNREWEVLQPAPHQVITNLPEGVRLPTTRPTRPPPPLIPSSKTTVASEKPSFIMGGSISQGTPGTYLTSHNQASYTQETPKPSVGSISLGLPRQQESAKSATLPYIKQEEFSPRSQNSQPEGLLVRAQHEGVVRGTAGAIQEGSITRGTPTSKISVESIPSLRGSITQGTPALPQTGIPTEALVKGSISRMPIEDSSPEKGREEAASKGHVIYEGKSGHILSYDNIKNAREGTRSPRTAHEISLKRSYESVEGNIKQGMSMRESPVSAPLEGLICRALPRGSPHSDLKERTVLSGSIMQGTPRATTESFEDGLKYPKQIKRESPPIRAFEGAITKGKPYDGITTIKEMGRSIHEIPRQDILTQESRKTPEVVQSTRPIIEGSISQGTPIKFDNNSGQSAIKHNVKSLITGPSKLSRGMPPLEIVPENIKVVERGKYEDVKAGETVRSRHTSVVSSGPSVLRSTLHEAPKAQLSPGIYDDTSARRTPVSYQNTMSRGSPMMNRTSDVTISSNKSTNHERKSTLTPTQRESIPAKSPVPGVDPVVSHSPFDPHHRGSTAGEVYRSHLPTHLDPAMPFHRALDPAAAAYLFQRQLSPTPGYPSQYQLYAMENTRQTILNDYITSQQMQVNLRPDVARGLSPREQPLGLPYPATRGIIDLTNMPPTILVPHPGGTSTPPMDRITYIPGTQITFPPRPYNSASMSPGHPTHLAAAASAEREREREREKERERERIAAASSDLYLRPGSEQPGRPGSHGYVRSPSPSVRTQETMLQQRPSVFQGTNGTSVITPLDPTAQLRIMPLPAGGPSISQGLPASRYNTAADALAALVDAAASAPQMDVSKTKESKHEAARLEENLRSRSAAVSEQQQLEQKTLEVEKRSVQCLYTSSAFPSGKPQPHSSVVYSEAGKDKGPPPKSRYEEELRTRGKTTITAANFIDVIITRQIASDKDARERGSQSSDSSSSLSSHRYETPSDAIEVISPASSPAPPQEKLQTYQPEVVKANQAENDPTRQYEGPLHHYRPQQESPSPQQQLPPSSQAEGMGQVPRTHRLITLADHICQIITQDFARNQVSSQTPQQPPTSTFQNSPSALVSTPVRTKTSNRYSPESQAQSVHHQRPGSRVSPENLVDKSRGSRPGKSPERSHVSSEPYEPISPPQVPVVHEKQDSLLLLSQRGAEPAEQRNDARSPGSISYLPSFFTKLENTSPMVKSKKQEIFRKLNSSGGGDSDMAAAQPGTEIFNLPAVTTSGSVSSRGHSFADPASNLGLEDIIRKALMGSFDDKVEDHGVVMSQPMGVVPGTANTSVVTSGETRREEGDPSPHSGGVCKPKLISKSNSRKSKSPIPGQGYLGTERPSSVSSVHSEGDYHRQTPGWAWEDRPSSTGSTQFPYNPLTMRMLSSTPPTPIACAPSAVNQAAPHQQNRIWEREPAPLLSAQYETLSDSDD
UniProt O43707, whole entry, looked up: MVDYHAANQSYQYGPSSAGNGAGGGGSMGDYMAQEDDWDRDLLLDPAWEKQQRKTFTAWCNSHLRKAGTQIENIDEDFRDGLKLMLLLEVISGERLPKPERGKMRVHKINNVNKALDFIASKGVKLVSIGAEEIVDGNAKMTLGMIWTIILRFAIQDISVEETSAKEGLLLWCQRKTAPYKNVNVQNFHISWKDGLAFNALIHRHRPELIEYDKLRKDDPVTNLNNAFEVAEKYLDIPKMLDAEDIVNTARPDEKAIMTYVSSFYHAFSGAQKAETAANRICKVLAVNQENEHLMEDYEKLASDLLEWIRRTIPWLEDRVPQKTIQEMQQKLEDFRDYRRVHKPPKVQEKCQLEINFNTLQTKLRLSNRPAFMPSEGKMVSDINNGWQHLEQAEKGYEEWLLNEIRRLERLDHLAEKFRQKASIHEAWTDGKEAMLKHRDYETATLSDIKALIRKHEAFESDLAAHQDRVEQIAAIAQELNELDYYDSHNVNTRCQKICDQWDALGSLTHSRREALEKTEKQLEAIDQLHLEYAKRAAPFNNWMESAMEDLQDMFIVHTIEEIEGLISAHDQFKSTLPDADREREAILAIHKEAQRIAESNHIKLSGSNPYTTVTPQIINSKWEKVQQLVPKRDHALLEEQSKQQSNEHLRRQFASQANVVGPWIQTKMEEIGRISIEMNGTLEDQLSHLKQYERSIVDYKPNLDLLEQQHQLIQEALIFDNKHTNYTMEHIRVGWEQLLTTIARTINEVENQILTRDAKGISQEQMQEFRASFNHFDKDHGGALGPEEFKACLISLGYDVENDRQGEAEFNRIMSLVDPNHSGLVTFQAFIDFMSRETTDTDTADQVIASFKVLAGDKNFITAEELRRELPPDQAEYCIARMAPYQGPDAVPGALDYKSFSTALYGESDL
UniProt O60749: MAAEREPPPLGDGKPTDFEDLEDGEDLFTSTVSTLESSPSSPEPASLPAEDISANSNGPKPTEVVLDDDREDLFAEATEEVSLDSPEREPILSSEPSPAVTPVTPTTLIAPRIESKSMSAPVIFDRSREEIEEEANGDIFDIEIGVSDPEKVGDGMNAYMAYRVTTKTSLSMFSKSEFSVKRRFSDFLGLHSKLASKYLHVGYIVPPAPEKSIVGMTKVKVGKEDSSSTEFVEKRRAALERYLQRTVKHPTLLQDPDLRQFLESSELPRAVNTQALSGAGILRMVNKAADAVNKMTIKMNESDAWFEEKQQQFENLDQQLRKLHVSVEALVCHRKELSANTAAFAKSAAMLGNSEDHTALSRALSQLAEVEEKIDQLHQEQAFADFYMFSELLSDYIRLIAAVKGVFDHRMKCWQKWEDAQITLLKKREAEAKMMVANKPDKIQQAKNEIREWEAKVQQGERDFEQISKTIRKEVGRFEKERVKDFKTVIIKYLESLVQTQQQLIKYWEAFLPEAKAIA
UniProt O60664: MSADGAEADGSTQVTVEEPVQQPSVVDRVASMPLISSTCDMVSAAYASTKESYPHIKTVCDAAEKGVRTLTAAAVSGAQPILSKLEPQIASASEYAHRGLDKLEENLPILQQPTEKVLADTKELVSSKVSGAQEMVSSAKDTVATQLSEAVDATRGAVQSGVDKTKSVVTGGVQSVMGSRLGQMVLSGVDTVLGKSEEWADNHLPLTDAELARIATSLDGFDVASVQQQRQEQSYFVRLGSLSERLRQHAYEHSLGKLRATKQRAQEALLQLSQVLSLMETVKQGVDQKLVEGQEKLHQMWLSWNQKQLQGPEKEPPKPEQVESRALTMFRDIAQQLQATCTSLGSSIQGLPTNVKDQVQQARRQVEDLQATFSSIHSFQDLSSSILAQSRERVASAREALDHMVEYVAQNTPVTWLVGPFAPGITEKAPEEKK
UniProt O75152: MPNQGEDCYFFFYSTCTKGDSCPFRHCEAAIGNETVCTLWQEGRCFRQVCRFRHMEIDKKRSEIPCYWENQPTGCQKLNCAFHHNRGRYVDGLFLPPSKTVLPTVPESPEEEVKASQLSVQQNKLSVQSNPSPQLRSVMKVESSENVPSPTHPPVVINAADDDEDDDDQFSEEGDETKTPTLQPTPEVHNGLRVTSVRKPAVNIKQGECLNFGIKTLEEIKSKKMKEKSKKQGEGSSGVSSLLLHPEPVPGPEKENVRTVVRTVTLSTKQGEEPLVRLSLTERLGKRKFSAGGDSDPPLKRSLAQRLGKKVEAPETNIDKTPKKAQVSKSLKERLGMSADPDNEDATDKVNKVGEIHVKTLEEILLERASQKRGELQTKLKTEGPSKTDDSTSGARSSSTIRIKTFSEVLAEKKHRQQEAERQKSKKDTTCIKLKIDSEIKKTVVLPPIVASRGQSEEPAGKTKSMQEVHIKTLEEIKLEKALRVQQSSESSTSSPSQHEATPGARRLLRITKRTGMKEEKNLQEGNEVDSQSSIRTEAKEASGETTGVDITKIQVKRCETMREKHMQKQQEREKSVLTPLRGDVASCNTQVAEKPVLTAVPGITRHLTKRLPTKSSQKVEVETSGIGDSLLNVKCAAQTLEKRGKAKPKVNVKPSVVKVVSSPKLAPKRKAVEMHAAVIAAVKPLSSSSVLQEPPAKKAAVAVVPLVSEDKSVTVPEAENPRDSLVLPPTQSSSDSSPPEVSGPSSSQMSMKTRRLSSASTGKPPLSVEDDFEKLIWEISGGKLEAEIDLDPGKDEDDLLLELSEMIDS
UniProt O60232: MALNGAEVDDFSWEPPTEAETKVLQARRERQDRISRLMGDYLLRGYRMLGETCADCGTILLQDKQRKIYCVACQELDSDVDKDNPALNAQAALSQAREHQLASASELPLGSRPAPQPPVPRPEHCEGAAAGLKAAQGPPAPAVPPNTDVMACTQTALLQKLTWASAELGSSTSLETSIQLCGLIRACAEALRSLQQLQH
UniProt O75940: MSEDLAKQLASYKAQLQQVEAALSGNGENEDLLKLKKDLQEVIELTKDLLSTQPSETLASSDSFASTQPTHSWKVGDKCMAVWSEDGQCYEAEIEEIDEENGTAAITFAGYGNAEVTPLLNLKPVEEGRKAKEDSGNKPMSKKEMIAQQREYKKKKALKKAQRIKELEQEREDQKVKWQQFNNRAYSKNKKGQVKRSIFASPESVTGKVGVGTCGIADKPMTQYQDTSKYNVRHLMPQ
UniProt O60547: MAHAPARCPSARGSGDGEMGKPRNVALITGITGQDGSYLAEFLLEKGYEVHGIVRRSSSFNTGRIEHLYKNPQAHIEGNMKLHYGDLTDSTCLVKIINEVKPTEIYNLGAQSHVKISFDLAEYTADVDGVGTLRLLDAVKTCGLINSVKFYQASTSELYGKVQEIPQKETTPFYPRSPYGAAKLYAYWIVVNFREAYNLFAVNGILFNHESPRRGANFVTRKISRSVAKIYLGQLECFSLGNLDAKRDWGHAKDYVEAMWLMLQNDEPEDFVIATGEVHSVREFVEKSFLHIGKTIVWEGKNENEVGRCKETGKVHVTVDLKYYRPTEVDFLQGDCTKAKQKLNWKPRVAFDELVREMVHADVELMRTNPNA

Compound: COC(=O)/C=C/c1ccccc1 [methyl cinnamate]
Experiment: log2 ratio of iodoacetamide-alkyne labeling of the cysteine site, DMSO over compound (competition); higher = stronger covalent engagement of the cysteine by the compound, active = 1 or more
Settings: 500 µM; treatment time 1 h; system: HEK293T cell lysate
Procedure, shortened: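 HEK293T lysate (2 mg/mL) was treated with DMSO or electrophile (500 µM, 1 h, ambient temperature), then iodoacetamide alkyne (1 h), clicked to sCIP-TMT reagents, pooled, trypsin-digested overnight at 37 °C, streptavidin-enriched and acid-eluted. Peptides were run on Orbitrap Eclipse LC-MS/MS with FAIMS and quantified in FragPipe. The log2 competition ratio per cysteine is mean control-channel over mean compound-channel reporter intensity. Duplicate channels and three replicates were used, and cysteines quantified in only one replicate were excluded.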

log2 ratio of iodoacetamide-alkyne labeling, inactive:
H2AFY C297 (UniProt O75367) -0.0893, NCOR1 C474 (UniProt O75376) 0.185, ROCK2 C247 (UniProt O75116) -0.0531, USO1 C678 (UniProt O60763) 0.0329, ACTN4 C499 (UniProt O43707) -0.0623, SNX2 C413 (UniProt O60749) 0.569, SRGAP2 C820 (UniProt O75044) 0.212, MPDZ C1794 (UniProt O75970) 0.263, UniProt O60664_C39 0.0101, ZC3H11A C209 (UniProt O75152) 0.435, UniProt O60232_C125 0.286, UniProt O75153_C1196 0.355, ACTN4 C351 (UniProt O43707) 0.284, UniProt O60664_C341 0.00943, SMNDC1 C214 (UniProt O75940) 0.327, GMDS C237 (UniProt O60547) 0.109
